# Data taken from patent EP4796557A1, “POLYPEPTIDE, BIOACTIVE CONJUGATE, AND PREPARATION METHOD THEREFOR AND USE THEREOF” (priority 2023, dated 2025).
# Amino acid sequences for entries named in this document (tags omitted). A change or cut given only in a name is not applied to a line headed by its entry. Residues count along the entry.
# UniProt P13726: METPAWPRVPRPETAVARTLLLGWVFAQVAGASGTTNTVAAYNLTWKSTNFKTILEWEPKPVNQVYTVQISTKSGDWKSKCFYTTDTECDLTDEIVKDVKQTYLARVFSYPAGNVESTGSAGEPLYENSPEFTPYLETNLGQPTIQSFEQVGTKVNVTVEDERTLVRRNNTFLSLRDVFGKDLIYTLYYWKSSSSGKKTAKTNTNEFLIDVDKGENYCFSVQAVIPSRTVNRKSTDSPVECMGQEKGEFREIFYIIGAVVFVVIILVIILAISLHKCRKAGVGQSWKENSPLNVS
# Tissue Factor on MDA-MB-231 cells: residues 33-295 of P13726
# antigen protein TF: residues 33-251 of P13726
# No constants are given. Whether binding was seen depends on the method and setting. Some results given as binding are weak or reduced against the parent protein; the word gives no strength.
# Experiments:
# antigen protein TF [1] = molecular target: antigen protein TF (UniProt P13726); experiment: ELISA, TF coated
# [2] = molecular target: Tissue Factor on MDA-MB-231 cells (UniProt P13726); experiment: flow cytometry on MDA-MB-231 cells
# antigen protein TF [3] = molecular target: antigen protein TF (UniProt P13726); experiment: BLI (Fortebio), antibody on ProA sensor
binding (antigen protein TF [1]),binding [2],binding (antigen protein TF [3]),Binder
binds,binds,binds,"h1849-H3L3 (antibody, human IgG1, kappa, V domains shown) VH: EVQLVESGGGVVQPGRSLRLSCAASGFTFSDYNMAWIRQAPGKGLEWVAAIIYDGTRTYYRDSVKGRFTISRDNSKSTLYLQMNSLRAEDTAVYYCATGDSYTNFAYWGQGTLVTVSS VL: EIVLTQSPTSLSASVGDRVTITCRASSSLSYMHWYQQKPGTSPKLLIYETSKLESGVPSRFSGSGSGTDFTLTIDSLQPEDFATYYCQQGNSYPRTFGGGTKVEIKR"
binds,binds,binds,"h1849-H2L1 (antibody, human IgG1, kappa, V domains shown) VH: EVQLVESGGGVVQPGRSLRLSCAASGFTFSDYNMAWIRQAPGKGLEWVAAIIYDGTRTYYRDSVKGRFTISRDNSKSTLYLQMDSLRAEDTAVYYCATGDSYTNFAYWGQGTLVTVSS VL: EIVLTQSPTFLSASVGDRVTITCRASSSLSYMHWYQQKPGTSPKLLIYETSKLQSGVPSRFSGSGSGTSFTLTIDSLQPEDFATYYCQQGNSYPRTFGGGTKVEIKR"
